Laboratory results reported in PubChem BioAssay AID2685 (National Center for Advancing Translational Sciences (NCATS), 2010).
Hit rate of the full screen: of about 320,000 compounds, about 2,100 (0.66%) were called active. This list was built around the results that the source calls inconclusive (neither active nor inactive); the mix of calls is not that of the screen. Calls follow the shape of the dose curve; as a rule, active = well fitted inhibition curve with a large enough effect in the signal ratio, with a control signal flat (not every such curve was filed as active); inconclusive = small, poorly fitted or top-dose-only effect, or effect the other way, or a change in a side signal; inactive = flat fitted curve, though single readings scatter; the % refers to the signal ratio. Potencies beside an inconclusive call are fits to weak or partial responses and may not hold up.

experiment: qHTS Assay for Lipid Storage Modulators in Drosophila S3 Cells; conditions: BODIPY lipid droplet fluorescence, 18-24 h, cells fed with added oleic acid; lipid storage change, negative = inhibition: at 46.1 µM (top of the series) unless noted
How it was run: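 Laser-scanning cytometry quantifies lipid droplet accumulation (500–530 nm total intensity; droplet/cell object ratio) in oleic acid-fed (400 uM added) Drosophila S3 cells treated with a concentration series. 20 uM Triacsin C defined 100% inhibition.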
% is scaled to controls: 0 for no effect and ±100 for the full control effect; potency is read from the fitted curve at half-maximal effect.

Structure (SMILES) | lipid storage change, negative = inhibition | Potency
Cc1cc(C)cc(-c2nnc(SCc3ccc(C(=O)O)cc3)o2)c1 | inconclusive: -4.64% | 
CCC(C)(C)NC(=O)C(c1cccc(OC)c1OC)N(C(=O)CCC(=O)Nc1cc(C)on1)c1ccc2c(c1)OCCO2 (stereo not drawn) | inconclusive: 69.6% | 
COc1ccc(CNC(=O)C2CC(=O)N(c3ccc(OCC(=O)N4CCCCC4)cc3)C2)cc1 (stereo not drawn) |  | inconclusive: 2.31 µM [activator, partial curve, poor fit]
O=C(CCN1C(=O)C2CCCCC2C1=O)Nc1nc2c(F)cc(F)cc2s1 (stereo not drawn) | inconclusive: -3.67% | 
O=C(NCC1CCCO1)c1cccc(NS(=O)(=O)c2ccccc2)c1 (stereo not drawn) | inconclusive: -44.2% | 
CCOC(=O)Cn1nnnc1C(C(C)C)N(Cc1cccs1)Cc1cc2cc(C)ccc2[nH]c1=O (stereo not drawn) | inconclusive: 239% | 
CC(C)(C)c1ccc(C(=O)c2c[nH]c(C(=O)O)c2)cc1 |  | inconclusive: 6.51 µM [rising, single point]
CC(=O)c1ccc(O)c(CO)c1 |  | inconclusive: 0.0052 µM [falling, full curve, poor fit]
CCOc1cc(C#N)c(NC(=O)c2ccnn2C)cc1OCC | inconclusive: 30.9% | 
C#CCNC(=O)C1CCN(c2cc(C)nc(-c3ccccc3)n2)CC1 |  | inconclusive: 18.4 µM [falling, partial curve, poor fit]
Cc1cc2c(n1-c1ccc(Br)cc1)CC(C)(C)CC2=O | inconclusive: 43.9% | 
S=C(NC1CCCC1)N1CCN(c2cccc(Cl)c2)CC1 | inconclusive: 5.49% | 
O=C(c1ccccc1)c1ccc(OCCCN2CCCC2)cc1 | inconclusive: 0.588% | 
Cc1ccnc(NS(=O)(=O)c2ccc(N3C(=O)C4CCCCC4C3=O)cc2)n1 (stereo not drawn) | inconclusive: 24.3% | 
Cc1ccc(C(=O)N2CCN(c3ncnc4c(C)csc34)CC2)cc1 | inconclusive: -18.7% | 
O=C(CN1CCN(Cc2ccc(Cl)cc2)C1=O)NCCN1CCCC1 | inconclusive: -0.78% | 
Cc1ccc(Cl)c(OCC(=O)Nc2ccc(S(=O)(=O)NC3=NCCCCC3)cc2)c1 | inconclusive | 
OCCCNc1nc(-c2ccc(Br)cc2)nnc1-c1ccc(Cl)cc1 | inconclusive: -26% | 
CC1=NOC(=O)/C1=C\c1ccc(-c2ccc(Cl)c(C(=O)O)c2)o1 |  | inconclusive: 29.1 µM [falling, single point]
CCOC(=O)[C@H]1[C@H]2COc3ccc(Cl)cc3[C@@H]2N2C(=O)CNC(=O)[C@@]12C |  | inconclusive: 0.517 µM [activator, partial curve]
COC(c1ccccc1)c1nnc(CCC(=O)N2CCN(Cc3cccs3)CC2)o1 (stereo not drawn) |  | inconclusive: 29.1 µM [falling, single point]
O=C(Nc1ccc([N+](=O)[O-])cc1)Nc1cnccn1 | inconclusive: -73.9% | 
CCOC(=O)C1=C(C)Nc2nnnn2C1c1ccc(OC)c(Br)c1 (stereo not drawn) |  | inconclusive: 0.259 µM [activator, full curve, poor fit]
Cc1ccc(S(=O)(=O)N2C(=S)SCC2(C)C)cc1 |  | inconclusive: 3.66 µM [falling, full curve]

Some of the entries above in another layout.

| Structure (SMILES) | lipid storage change, negative = inhibition | Potency |
| --- | --- | --- |
| O=C(NCC1CCCO1)c1cccc(NS(=O)(=O)c2ccccc2)c1 (stereo not drawn) | inconclusive: -44.2% |  |
| CCOC(=O)Cn1nnnc1C(C(C)C)N(Cc1cccs1)Cc1cc2cc(C)ccc2[nH]c1=O (stereo not drawn) | inconclusive: 239% |  |

Continued.

Structure (SMILES) | lipid storage change, negative = inhibition | Potency
CCN(CC)C(=O)c1sc2nc(-c3ccccc3)ccc2c1N |  | inconclusive: 1.84 µM [rising, full curve, poor fit]
CN(Cc1cccc(Cl)c1Cl)CC(O)COc1ccccc1 (stereo not drawn) |  | inconclusive: 32.6 µM [cytotoxic, single point]
COc1ccc(CCNC(=O)CNCCc2ccc(F)cc2)cc1 | inconclusive: 14.2% | 
Cc1ccc2cc(CCNC(=O)CC(C)C)c(=O)[nH]c2c1 | inconclusive: 13.4% | 
COc1ccc(CN(C(=O)c2cc(=O)c3ccccc3o2)C2CCS(=O)(=O)C2)cc1OC (stereo not drawn) | inconclusive: -17.8% | 
Cc1ccc([C@@H]2[C@@H]3C(=O)N(c4ccccc4)C(=O)[C@@H]3[C@]3(C)C(=O)N(Cc4ccccn4)CC(=O)N23)o1 | inconclusive: 58.3% | 
CC1CCN(S(=O)(=O)N2CCC(C(=O)NCc3ccc4c(c3)OCO4)CC2)CC1 |  | inconclusive: 3.66 µM [activator, partial curve]
Cc1nnc(SCC(=O)Nn2cnnc2)s1 | inconclusive: -30.4% | 
CCN1CCN(C(=S)c2ccc(SC)cc2)CC1 | inconclusive: -17.6% | 
Cc1c(C(=O)N(C)CCOc2ccccc2)oc2c(Cl)cccc12 | inconclusive: 24.5% | 
CCOc1cc(/C=C2\NC(=S)N(c3c(C)n(C)n(-c4ccccc4)c3=O)C2=O)ccc1O | inconclusive: 37.5% | 
CC(=O)N(CN1C(=O)c2ccccc2C1=O)c1ccccc1 | inconclusive: 13% | 
C=CCn1c(CNC(=O)c2cccs2)nnc1SCC(=O)c1ccc(Br)cc1 | inconclusive: 42.7% | 
CC(Sc1nc(N)cc(=O)[nH]1)C(=O)Nc1nc2c(s1)CCCC2 (stereo not drawn) | inconclusive: -22% | 
Cc1cccc(C(=O)NCC(=O)OCC(=O)NC2CCCCCCC2)c1 | inconclusive: -61.9% [at 0.0737 µM] | 
O=C(Nc1nnc(SCc2ccc(F)cc2)s1)c1ccco1 |  | inconclusive: 6.51 µM [falling, single point]
NS(=O)(=O)c1ccc(CCN2C(=O)/C(=C\c3ccc(Cl)cc3)SC2=S)cc1 | inconclusive: -8.49% | 
COC(=O)c1ccccc1NC(=O)Cn1cnc2ccc(S(=O)(=O)N3CCC(C)CC3)cc2c1=O |  | inconclusive: 0.259 µM [activator, full curve, poor fit]
COc1ccc(NC(=O)CN(C)CC(=O)Nc2ccc(Cl)c(S(=O)(=O)N(C)C)c2)cc1 |  | inconclusive: 3.66 µM [activator, partial curve, poor fit]
CC(=O)c1ccc(C(=O)N2CCCC(Nc3ccc(C(C)C)cc3)C2)s1 (stereo not drawn) | inconclusive: -81.6% | 
C/C=C/c1ccc(OCC(=O)OCC)c(OC)c1 | inconclusive: -31.5% | 
CCCc1nnc(SCc2ccc(C(=O)OC)o2)n1N | inconclusive: -24.5% | 
COCC(=O)Nc1ccc2c(c1)OCC(=O)N2Cc1ccccc1F | inconclusive: -1.15% | 
CCOC(=O)c1ccc(NS(=O)(=O)c2cccc3nsnc23)cc1 | inconclusive: 60% | 

Gathered by group, the compounds so far containing bromine (four)
Structure (SMILES) | lipid storage change, negative = inhibition | Potency
Cc1cc2c(n1-c1ccc(Br)cc1)CC(C)(C)CC2=O | inconclusive: 43.9% | 
OCCCNc1nc(-c2ccc(Br)cc2)nnc1-c1ccc(Cl)cc1 | inconclusive: -26% | 
CCOC(=O)C1=C(C)Nc2nnnn2C1c1ccc(OC)c(Br)c1 (stereo not drawn) |  | inconclusive: 0.259 µM [activator, full curve, poor fit]
C=CCn1c(CNC(=O)c2cccs2)nnc1SCC(=O)c1ccc(Br)cc1 | inconclusive: 42.7% | 
